Drawing on publication PMC8906119, this text covers binding for one molecule.

No constants are given. Whether binding was seen depends on the method and setting. Binding seen in cells or lysates may run through a third protein. Here binding means that the protein was enriched with, or labelled near, the bait; the list need not be complete.

This assay has as its target WW domain-containing E3 ubiquitin protein ligase1 (WWP1) (human (endogenous in HuCCT1, HCCC-9810, RBE)) (UniProt Q9H0M0). Kind of assay: affinity purification with mass spectrometry; immunoprecipitation with WWP1 antibody from ICC cells, SDS-PAGE with Coomassie blue staining, label-free mass spectrometry.

B1: Nedd4 family interacting protein1 (NDFIP1) (protein, UniProt Q9BT67 1-221)
chain: MALALAALAAVEPACGSRYQQLQNEEESGEPEQAAGDAPPPYSSISAESAAYFDYKDESGFPKPPSYNVATTLPSYDEAERTKAEATIPLVPGRDEDFVGRDDFDDADQLRIGNDGIFMLTFFMAFLFNWIGFFLSFCLTTSAAGRYGAISGFGLSLIKWILIVRFSTYFPGYFDGQYWLWWVFLVLGFLLFLRGFINYAKVRKMPETFSNLPRTRVLFIY
For the molecule B1, the binding result is recorded as “binds”.
